Data source: PubChem BioAssay AID1259254 (NCATS, 2017)
Aim: 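Genome-wide screen for genes that prevent DNA re-replication in cancer cells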 (primary screen). Cells: human HCT116 colorectal cancer cells. Reagent: single siRNA against human genes. Time to read-out: 3 days. Detection: 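Nuclei stained with Hoechst and imaged; cell-cycle phase assigned by DNA content; G2 share scaled per plate, non-targeting siRNA 0%, GMNN siRNA 100%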. Scale: G2 robust z-score and G2 cells, % of GMNN control: higher = more G2 cells, more excess DNA replication. Active means: 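Active siRNAs have a G2 robust z of 5 or more median absolute deviations over the median, which in these data means about 38% or higher of GMNN control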.
The deposit covers about 59,000 reagents; below is a random part of them. Of all reagents, about 1,550 (2.6%) were called active. 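G2 share is only a proxy for re-replication; each gene was hit by three separate siRNAs, and active genes were retested.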 A number with no mark means an inactive call. The numbers tell different reagents against one gene apart. Further read-outs or replicates are left out here. Not given: the amount of reagent.

With LOC728283 (retired record) #1, what was measured?
G2 robust z-score: -0.323; G2 cells, % of GMNN control: 0.697

How did the screen score LOC728283 (retired record) #2?
G2 robust z-score: -1.24; G2 cells, % of GMNN control: -5.75

What is on record for LOC728283 (retired record) #3?
G2 robust z-score: -0.983; G2 cells, % of GMNN control: -3.95

What is on record for MIP (major intrinsic protein of lens fiber) #1?
G2 robust z-score: -0.232; G2 cells, % of GMNN control: 1.34

What did the screen give for MIP (major intrinsic protein of lens fiber) #2?
G2 robust z-score: -0.632; G2 cells, % of GMNN control: -1.48

For MIP (major intrinsic protein of lens fiber) #3, how do the results read?
G2 robust z-score: -0.313; G2 cells, % of GMNN control: 0.767

For HK1 (hexokinase 1) #1, what does the deposit list?
G2 robust z-score: -0.939; G2 cells, % of GMNN control: -3.64

How did the screen score HK1 (hexokinase 1) #2?
G2 robust z-score: 0.519; G2 cells, % of GMNN control: 6.62

Which result is listed for HK1 (hexokinase 1) #3?
G2 robust z-score: -0.547; G2 cells, % of GMNN control: -0.884

How did the screen score TRIM67 (tripartite motif containing 67) #1?
G2 robust z-score: -0.866; G2 cells, % of GMNN control: -3.12

How did the screen score TRIM67 (tripartite motif containing 67) #2?
G2 robust z-score: 1.23; G2 cells, % of GMNN control: 11.6

With TRIM67 (tripartite motif containing 67) #3, what does the deposit list?
G2 robust z-score: 0.543; G2 cells, % of GMNN control: 6.79

With HPGDS (hematopoietic prostaglandin D synthase) #1, how do the results read?
G2 robust z-score: 0.159; G2 cells, % of GMNN control: 4.09

What is on record for HPGDS (hematopoietic prostaglandin D synthase) #2?
G2 robust z-score: 5.98 (active); G2 cells, % of GMNN control: 45.1

What did the screen give for HPGDS (hematopoietic prostaglandin D synthase) #3?
G2 robust z-score: 1.39; G2 cells, % of GMNN control: 12.7

What did the screen give for ACOT9 (acyl-CoA thioesterase 9) #1?
G2 robust z-score: 0.696; G2 cells, % of GMNN control: 7.86

What did the screen give for ACOT9 (acyl-CoA thioesterase 9) #2?
G2 robust z-score: -1.26; G2 cells, % of GMNN control: -5.89

For ACOT9 (acyl-CoA thioesterase 9) #3, what does the deposit list?
G2 robust z-score: -0.621; G2 cells, % of GMNN control: -1.4
